Measurements: the supplement of paper PMC5949888
Most values lie at the floor of the assay. Slopes are relative: functional sequences can read slightly below zero.

Tested on: Saccharomyces cerevisiae PS128 hsf1 delta, HSF1(1-493) fusion
Assay: growth estimate (transactivation domain function in HSF1 fusion, heat-shock survival) (a.u. (slope of normalised read count over time)); higher = stronger growth at 37°C, i.e. more transactivation activity
Settings: library: random library
Description: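 Random 60-nt DNA library encoding peptides of up to 20 aa, fused to the C-terminus of yeast HSF1 residues 1-493 (C-terminal TAD deleted) and expressed from the native HSF1 promoter on a CEN plasmid in hsf1-deleted S. cerevisiae PS128. Cells were selected at 37°C on -trp 5-FOA plates for 0, 2, 4, 6 and 8 days and amplicons were sequenced. Growth estimate is the slope of a robust linear fit of total-sum-normalised read counts (normalised to the first time point) over time, using at least 2 replicates. Sequences are classed functional (TAD activity) above a threshold of -0.13, set from stop-codon control sequences.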

| Substance | growth estimate |
| --- | --- |
| QEGFMSPKWKLALRLRICRV | < -0.25 |
| PLWGMGNL | < -0.25 |
| RQEMAFITPS | < -0.25 |
| VIVLVEFNDCLRTVAQACLL | < -0.25 |
| REGRLL | -0.245 |
| ITANGSPAGHRPVRIVPSPT | < -0.25 |
| LLSSGSSCLLLWPTRPRAC | < -0.25 |
| VDGHPMRQTNICLMTRIPSP | < -0.25 |
| ESDPGPSGGFARLGGFTTRV | < -0.25 |
| GPTCVDSSTVDNVLWQSRVV | < -0.25 |
| PFLVFAGYPPHDNGDSFGTW | < -0.25 |
| RSSYAHVHRASGTGDSIDQI | < -0.25 |
| CTSS | < -0.25 |
| GGGAVWS | < -0.25 |
| FIDQSRTRVGGTGSLVLT | < -0.25 |
| LFEFSLVGRVAVTKVTNRVT | < -0.25 |
| TRDDLTCR | < -0.25 |
| YGRLHIRKDVIDRPH | < -0.25 |
| DVLA | < -0.25 |
| QVVVPLGFNFSG | < -0.25 |
| TLVHIA | < -0.25 |
| NYARATRVRTSHQNVVRGSN | < -0.25 |
| LGHD | < -0.25 |
| AGEAVNISRGDRCGTRRSNR | < -0.25 |
| VSTHTQWGQLDGQIGEKLT | -0.231 |

| Substance | growth estimate |
| --- | --- |
| YTNRLSRSEQGRARPFRKQN | < -0.25 |
| GLGPNSILKAADVTSPPVLR | < -0.25 |
| DLA | < -0.25 |
| RHQSFVTGAVRILVYAAGWT | < -0.25 |
| PECQNQ | -0.245 |
| LSRHAPRGPHV | < -0.25 |
| VAVAH | < -0.25 |
| LIWGRVFRTQSCPRRGSWKR | < -0.25 |
| VSRSGETTQINLTQTSEGGR | < -0.25 |
| PEPSTGYVELRLVKSKLRQQ | < -0.25 |
| CAWAVIKGSIRNVVPHVMVG | < -0.25 |
| EYYTCRRSVTTQRSPGRCKF | < -0.25 |
| KSQNRRHDLM | < -0.25 |
| ERAWLSLCGGKPKMFCVACK | -0.208 |
| STAD | < -0.25 |
| DLIAKGDRLIGCTAQSVPGV | < -0.25 |
| HMDWVIN | < -0.25 |
| HCPVNCGARYLP | < -0.25 |
| YIDCSG | < -0.25 |
| PRPGVRSRVTKGLTGWY | < -0.25 |
| RPDVRGNY | < -0.25 |
| LWVSLNIR | < -0.25 |
| SIRTGN | < -0.25 |
| SAVMISPSSSTRGSVQTSML | < -0.25 |
| SRIKRREILGIRSD | < -0.25 |

Shown tab-delimited: part of the list above
Substance	growth estimate
ITANGSPAGHRPVRIVPSPT	< -0.25
LLSSGSSCLLLWPTRPRAC	< -0.25
VDGHPMRQTNICLMTRIPSP	< -0.25
ESDPGPSGGFARLGGFTTRV	< -0.25
GPTCVDSSTVDNVLWQSRVV	< -0.25
PFLVFAGYPPHDNGDSFGTW	< -0.25
RSSYAHVHRASGTGDSIDQI	< -0.25
CTSS	< -0.25
GGGAVWS	< -0.25
FIDQSRTRVGGTGSLVLT	< -0.25
LFEFSLVGRVAVTKVTNRVT	< -0.25
TRDDLTCR	< -0.25
YGRLHIRKDVIDRPH	< -0.25

Remaining list, next part

| Substance | growth estimate |
| --- | --- |
| LISMVVGVQ | < -0.25 |
| EIRLESVME | < -0.25 |
| FHLDRVIRDHTKGPDRSLPH | < -0.25 |
| DELLRTGRH | < -0.25 |
| GLVHSHLPR | < -0.25 |
| KYASIPDNVFGRR | 0.0805 |
| GAPGQ | < -0.25 |
| RNNS | < -0.25 |
| NMQVTVL | < -0.25 |
| AGNQLTAFGEGALEIDMTCY | < -0.25 |
| WITNVMSDHYCRNGPAPGLE | < -0.25 |
| VLLLCSRRPVYIESSKSARR | < -0.25 |
| NHFI | < -0.25 |
| CFGSRG | < -0.25 |
| GGVNKTQAIARSGTA | < -0.25 |
| RSRDSCC | < -0.25 |
| FTYYFRCRCFAPNHVLLDG | < -0.25 |
| GCGLRAAC | < -0.25 |
| WSQGSPGVSY | < -0.25 |
| VEVLI | < -0.25 |
| SLGSHVPRRRKAVAVLFRVP | < -0.25 |
| SCHEKGQYSRLVTSGPSWTG | < -0.25 |
| DATRRCRGGYGRHMSAKKLE | -0.206 |
| PGS | -0.243 |
